Experimental data published in the supplement of paper PMC8104966.
The other results are listed elsewhere or left out. This data set is noisy: repeats of one test often differ as much as different tests do.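 U2OS cells carrying ACE2 were mixed with U2OS cells carrying full-length spike, and fusion was scored by imaging as the share of nuclei showing both cell types' fluorescent markers. A compound counts as an inhibitory hit when it is non-toxic and its fusion z-score falls below -3, meaning more than three standard deviations below the plate's DMSO wells.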

test system: U2OS ACE2 x SARS-CoV-2 spike co-culture; test: cell-cell fusion (fraction fused) z-score vs plate DMSO control; higher = more fusion; conditions: 30 µM; 5 h; toxicity class: non-toxic, passed QC

SMILES	cell-cell fusion (z-score)
CC(C)(C)C(=O)C(Oc1ccc(Cl)cc1)n1ccnc1 (stereo unspecified)	inactive: 2.03
CCC[C@@H]1C[C@@H](C(=O)N[C@@H]([C@H]2O[C@H](SC)[C@H](O)[C@@H](O)[C@H]2O)[C@@H](C)O)N(C)C1.Cl.O [Lincomycin hydrochloride monohydrate]	inactive: 0.557
Cc1ncc(CSSCc2cnc(C)c(O)c2CO)c(CO)c1O	inactive: 0.763
CCN1C[C@@]2(COC)C3[C@@H](OC)C4[C@@H]1C3([C@@H]1C[C@@]3(O)[C@H](OC(=O)c5ccccc5)[C@@H]1[C@]4(OC(C)=O)[C@@H](O)[C@@H]3OC)[C@H](OC)C[C@H]2O [Aconitine]	inactive: 1.37
CCCCC[C@H]1C(=O)O[C@H](C)[C@H](NC(=O)c2cccc(NC=O)c2O)C(=O)O[C@@H](C)[C@@H]1OC(=O)CC(C)C [ANTIMYCIN A (A1 shown)]	inactive: 1.63
CN1CC(=O)N2[C@H](c3ccc4c(c3)OCO4)c3[nH]c4ccccc4c3C[C@@H]2C1=O [Tadalafil]	inactive: 2.11
O=C([O-])CC(O)(CC(=O)[O-])C(=O)[O-].[Li+].[Li+].[Li+]	inactive: 0.982
CCCc1nc(C(C)(C)O)c(C(=O)OCc2oc(=O)oc2C)n1Cc1ccc(-c2ccccc2-c2nn[nH]n2)cc1 [Olmesartan Medoxomil]	inactive: 4.16
C[C@@H]1CN(c2c(F)c(F)c3c(=O)c(C(=O)O)cn(C4CC4)c3c2F)C[C@H](C)N1	inactive: 3.25
O=C1NC(=O)C(c2ccccc2)(c2ccccc2)N1 [Phenytoin]	inactive: 2.65
Cc1cc(Cn2cnc3c2C[C@@H](C(=O)O)N(C(=O)C(c2ccccc2)c2ccccc2)C3)ccc1N.O=C(O)C(F)(F)F	inactive: 1.58
CCN(Cc1ccncc1)C(=O)C(CO)c1ccccc1 (stereo unspecified) [Tropicamide]	inactive: 0.61
CCCN(CC1CC1)c1nc(C)nc(Nc2c(Cl)cc(Cl)cc2Cl)c1Cl	inactive: 6.19
CC1=C2CC3[C@@H](CC=C4C[C@@H](O)CC[C@@]43C)[C@@H]2CC[C@]12O[C@@H]1C[C@H](C)CN[C@H]1[C@H]2C (stereo partly specified)	inactive: 3.97
N#Cc1nn(-c2c(Cl)cc(C(F)(F)F)cc2Cl)c(N)c1S(=O)C(F)(F)F (stereo unspecified)	inactive: 1.8
COc1cc2c(Nc3ccc(NC(=O)c4ccccc4)cc3)ncnc2cc1OCCCN1CCOCC1	inactive: 0.444
O=[N+]([O-])c1ccc(O)c2ncccc12	inactive: 1.44
CC1=C(C/C=C(\C)CCC[C@H](C)CCC[C@H](C)CCCC(C)C)C(=O)c2ccccc2C1=O	inactive: 1.79
O=C(NCCS(=O)(=O)c1ccc(C(F)(F)F)cn1)c1ccc(Cl)cc1	inactive: 1.54
Cc1cc(C2CCCCC2)n(O)c(=O)c1 [Ciclopirox]	inactive: -0.0889
CCCC(=O)O[C@]1(C(=O)CO)CCC2[C@@H]3CCC4=CC(=O)CC[C@]4(C)C3[C@@H](O)C[C@@]21C (stereo partly specified)	inactive: 4.19
Nc1nc(Cl)nc2c1ncn2[C@@H]1O[C@H](CO)[C@@H](O)[C@@H]1F [Clofarabine]	inactive: 1.33
O=C1C(O)=C([C@H]2CC[C@H](c3ccc(Cl)cc3)CC2)C(=O)c2ccccc21 [Atovaquone]	inactive: 1.32
COCCCC/C(=N\OCCN)c1ccc(C(F)(F)F)cc1.O=C(O)/C=C\C(=O)O [Fluvoxamine maleate]	inactive: -0.432

Part of the list above, in CSV form:
SMILES,cell-cell fusion (z-score)
COc1cc2c(Nc3ccc(NC(=O)c4ccccc4)cc3)ncnc2cc1OCCCN1CCOCC1,inactive: 0.444
O=[N+]([O-])c1ccc(O)c2ncccc12,inactive: 1.44
CC1=C(C/C=C(\C)CCC[C@H](C)CCC[C@H](C)CCCC(C)C)C(=O)c2ccccc2C1=O,inactive: 1.79
O=C(NCCS(=O)(=O)c1ccc(C(F)(F)F)cn1)c1ccc(Cl)cc1,inactive: 1.54

More records

SMILES	cell-cell fusion (z-score)
C[C@H](O)[C@H](O)[C@H]1CNc2nc(N)[nH]c(=O)c2N1.Cl.Cl [Sapropterin Hydrochloride]	inactive: 0.627
COc1cccc(OC)c1OCCNCC1CSc2ccccc2O1.Cl (stereo unspecified) [Benoxathian hydrochloride]	inactive: 0.313
CCCN[C@H]1CCc2nc(N)sc2C1.Cl.Cl [Pramipexole dihydrochloride]	inactive: -1.22
CN(C)CCOC(=O)C(c1ccccc1)C1(O)CCCC1.Cl (stereo unspecified)	inactive: 1.61
C[N+]1(CCCCC[N+]2(C)CCCC2)CCCC1.O=C([O-])[C@H](O)[C@@H](O)C(=O)O.O=C([O-])[C@H](O)[C@@H](O)C(=O)O [Pentolinium di[L(+)-tartrate]]	inactive: 1.91
CCN(CC)CCOC(=O)C(Cc1cccc2ccccc12)CC1CCCO1.O=C(O)C(=O)O (stereo unspecified)	inactive: 3.38
CN(C)c1cc(NC(=O)CNC(C)(C)C)c(O)c2c1C[C@H]1C[C@H]3[C@H](N(C)C)C(O)=C(C(N)=O)C(=O)[C@@]3(O)C(O)=C1C2=O [Tigecycline]	inactive: 4.14
CS(=O)(=O)O.Cc1ccc(N(CC2=NCCN2)c2cccc(O)c2)cc1 [Phentolamine mesylate]	inactive: 3.29
C[N+](C)(C)CCOC(N)=O.[Cl-]	inactive: 0.984
C[N+](C)(C)CCOC(N)=O.[Cl-] [Carbachol]	inactive: 1.55
Clc1nccc2c1ccc1ccccc12	inactive: 1.38
CNCC(O)c1ccc(O)c(O)c1.Cl (racemic) [DL-Adrenaline Hydrochloride]	inactive: -1.63
O=C(O)c1cccnc1C(=O)O	inactive: 3.55
O=C(O)c1cccnc1C(=O)O [Quinolinic acid]	inactive: 2.2
COc1ccc2cc1Oc1ccc(cc1)C[C@H]1c3c(cc4c(c3Oc3cc5c(cc3OC)CCN(C)[C@@H]5C2)OCO4)CCN1C	inactive: 0.53
CCC(=O)O[C@]1(C(=O)CCl)[C@@H](C)CC2C3CCC4=CC(=O)C=C[C@]4(C)[C@@]3(F)[C@@H](O)C[C@@]21C (stereo partly specified)	inactive: 0.798
O=c1cc(N2CCOCC2)oc2c(-c3ccccc3)cccc12	inactive: 0.169
COc1ccc2c(c1)c(CC(=O)OCC(=O)O)c(C)n2C(=O)c1ccc(Cl)cc1	inactive: 1.51
CC12CCCC(O)(C1)C1CC(C)(C)C1CC2 (stereo not drawn) [beta-CARYOPHYLLENE ALCOHOL]	inactive: 3.44
NCCc1c[nH]c2ccccc12	inactive: 1.59
CC(=O)N[C@@H](CS)C(=O)O [Acetylcysteine]	inactive: 2.93
O=C(O)c1cccnc1Nc1cccc(C(F)(F)F)c1	inactive: 0.00216
CC(C)=CCC[C@@H](C)CC=O	inactive: 2.45
CC(=O)OCC(=O)[C@@]12OC(C)(C)O[C@@H]1C[C@H]1[C@@H]3C[C@H](F)C4=CC(=O)C=C[C@]4(C)[C@@]3(F)[C@@H](O)C[C@@]12C [Fluocinonide]	inactive: 2.87

SMILES	cell-cell fusion (z-score)
Cl.N=c1ccn2c(n1)O[C@@H]1[C@@H](O)[C@H](CO)O[C@@H]12	inactive: -1.71
CN/C(=C/[N+](=O)[O-])NCCSCc1ccc(CN(C)C)o1.Cl [Ranitidine Hydrochloride]	inactive: 2.18
Cn1c(=O)c(F)c(Nc2ccc(I)cc2F)c2c(=O)n(C[C@@H](O)CO)cnc21	inactive: 0.467
O=C([O-])CCCO.[Na+]	inactive: 0.91
CCOC(=O)C1=C(O)C(=O)N(c2ccccc2)C1	inactive: 1.71
COc1ccc(Cc2nccc3cc(OC)c(OC)cc23)cc1OC.Cl	inactive: -1.76
CC1CCc2c(N3CCC(O)CC3)c(F)cc3c(=O)c(C(=O)O)cn1c23 (stereo unspecified)	inactive: 1.12
CC(C)NCC(O)COc1cccc2ccccc12.Cl (racemic) [(±)-Propranolol hydrochloride]	inactive: 2.19
CC(C)(Oc1ccc(Cl)cc1)C(=O)O [Clofibric acid]	inactive: 3.66
COc1cc(OC)c(C(=O)CCCN2CCCC2)c(OC)c1.Cl	inactive: 1.59
N[C@@H](CC(=O)N1CCn2c(nnc2C(F)(F)F)C1)Cc1cc(F)c(F)cc1F [Sitagliptin]	inactive: 2.52
Nc1nc(=O)c2nc(CNc3ccc(C(=O)N[C@@H](CCC(=O)O)C(=O)O)cc3)cnc2[nH]1	inactive: 1.35
COc1nc(N)nc2c1ncn2[C@@H]1O[C@H](CO)[C@@H](O)[C@@H]1O [Nelarabine]	inactive: 1.06
COc1ccc(-c2oc3cc(OC)c(OC)c(OC)c3c(=O)c2OC)cc1OC	inactive: 1.29
C[C@H](Nc1ncnc2nc[nH]c12)c1cc2cccc(Cl)c2c(=O)n1-c1ccccc1 [Duvelisib]	inactive: 0.335
C=CC(=O)Nc1ccc2ncnc(Nc3cccc(Br)c3)c2c1	inactive: -2.41
C=CC(N)CCC(=O)O.NCCO (stereo unspecified)	inactive: -1.22
O=C(OCc1ccccc1)c1ccccc1	inactive: 2.7
COc1ccc(C(=O)Nc2sc3c(c2C(N)=O)CCCC3)cc1OC	inactive: 1.33
CC1(C)[C@@H]2CC[C@]1(C)C(=O)C2	inactive: 0.606
O=c1[n-]c(=O)n(Cl)c(=O)n1Cl.[K+]	inactive: 0.837
Nc1nc(NC2CC2)c2ncn([C@H]3C=C[C@@H](CO)C3)c2n1.Nc1nc(NC2CC2)c2ncn([C@H]3C=C[C@@H](CO)C3)c2n1.O=S(=O)(O)O [Abacavir sulfate]	inactive: 2.2
CCCCCc1c2c(cc(O)c1C(=O)O)OC(=O)c1c(cc(OC)cc1C(=O)CCCC)O2	inactive: 2.97
